Results taken from PMC10782996.
For part of these data: Protein sequences can lack the tags named with them.

Assays:
Experiment in all cases: EMSA
[1] = test system: T1, Abh (Paenibacillus polymyxa SC2); conditions: EMSA: Beyotime chemiluminescent EMSA kit buffer (composition and pH not stated), 10 uL, 20 min at room temperature, native PAGE in 0.5x TBE, 70 V for 70 min, recombinant protein, residues 1-154, label: 5'-biotin on forward strand, probe letters rebuilt from the primers and the genome
T1 sequence (looked up): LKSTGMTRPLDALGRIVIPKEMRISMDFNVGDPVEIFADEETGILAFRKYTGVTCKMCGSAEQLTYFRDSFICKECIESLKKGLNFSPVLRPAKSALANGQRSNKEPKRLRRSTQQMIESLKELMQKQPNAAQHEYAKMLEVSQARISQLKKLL

[2] = test system: T2, AbrB3 (Paenibacillus polymyxa SC2); conditions: EMSA: Beyotime chemiluminescent EMSA kit buffer (composition and pH not stated), 10 uL, 20 min at room temperature, native PAGE in 0.5x TBE, 70 V for 70 min, recombinant protein, residues 1-84, label: 5'-biotin on forward strand, probe letters rebuilt from the primers and the genome
T2 sequence (looked up): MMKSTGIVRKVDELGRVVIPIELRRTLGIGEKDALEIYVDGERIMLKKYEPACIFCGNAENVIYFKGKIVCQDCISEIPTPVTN

[3] = test system: Spo0A (Paenibacillus polymyxa SC2); conditions: EMSA: Beyotime chemiluminescent EMSA kit buffer (composition and pH not stated), 10 uL, 20 min at room temperature, native PAGE in 0.5x TBE, 70 V for 70 min, recombinant protein, residues 1-267, label: 5'-biotin on forward strand, probe letters rebuilt from the primers and the genome

Measured: binding result

GATATCAGCTCCTTTAATATTCGGAATAATGGATTAAAATACAATAAAATCCTAAACATCTTCCCTTATTCGACACCGTTTGTCGTATTTTGTCGAATTATCACTTTTCGACATTTCCAAATCTACAATAAGACAAATCATCCGTAAAATAAGGTAAGGTACATGGATAAAGCTCTTTGTTCTAAATACTTTTGCATAATTAGGCTGTTACTACTTTTTTTAGGTTGACTGTTTTGGGAATCGTTGGTATAGTAAATATCAGAAAAGAGAAAATTTTGTCGAATCATGACACTTATATTATTTTAAACGGCGAGAGGAGCCTGATTTATT (double strand) [PabrB3]
binds: [1] | [2]; 0-6.3 uM protein, 11.5 nM DNA | [3]

AGACTGTCCCGTTCATGCCATACGGAGCATTCTTTGAGCCTCATGCAGACCCATCGTCACATCTAATCGTCAGGAAAAGCTCACTACCCCGCAGCCGTATCTTTACTTATCCACACCAGACGGGGGAATACACAAATCGTACATAGAGTGTATCAATATCCCTTAAACATAGGCTTCGACAAAGGCAGCTCCGGTGCCGAATCTGGAGGTACGGCCGACTTCCTGCTGGCCGGCCGGAACCCTACAGCAAGCCTTACATCGATGGGAGGAACATCCCTTGTCCACCCCCAAATCCAATTCCAAACCCAATGTTAAACCAAAGCCCGTCTTCGGGCGGCTCGTCCGCAGCAAGCATATTTAAGCACCCGCATCTCTTGCGTAGAACGATGCTCTTAGTTGTCTTTCACGCATAGCAGCCGAGCGGGACAGCTGCTAGGCAGAGGATTGCCGCATGCGATCAACCGGGCAAGCGAAGCGGTGACCTGGCGAAAGCCATTGACATTATTGTCAC (double strand) [Ppmx]
binds: [1]; 0-6.8 uM protein, 7.4 nM DNA | [2]; 0-12.7 uM protein, 7.4 nM DNA | [3]; 0-2.67 uM protein, 7.4 nM DNA
